Source: patent US20220098310A1 (Alexion, published 2022)
These are yes or no findings as the source states them, for the method shown. Some binding calls cover weakened binding; strength is not graded here.

T1: recombinant human ALK2 extracellular domain (Creative Biomart catalog number ACVR1-01H) (human) (UniProt Q04771)
T1 sequence: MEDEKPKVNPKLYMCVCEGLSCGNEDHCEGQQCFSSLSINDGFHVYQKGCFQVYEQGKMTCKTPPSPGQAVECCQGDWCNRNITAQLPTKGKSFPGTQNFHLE


Target: T1, recombinant human ALK2 extracellular domain (Creative Biomart catalog number ACVR1-01H) (human)
Assay: surface plasmon resonance (Biacore), normalised overlaid sensorgrams, captured antibody, 250 nM ALK2 ECD (ACVR1) injected

| binding | Binder |
| --- | --- |
| binds | JAB0501 (antibody, mouse IgG1, kappa, V domains shown) VH: EVQLQQSGAELVRPGASVRLSCTASGFNIKDSLMHWVKQRPEQGLEWIGWIDPEDGETKYAPNFQSKATITAVTSSNTAYLQLSSLTSEDSAIYYCARYTSPYYTMDYWGQGTSVTVSS VL: DIQMTQSPASQSASLGESVTFTCLASQTIGTWLAWYQQKPGKSPQLLIYAATSLADGVPSRFSGSGSGTKFSFKISSLQAEDFASYYCQQVYSTPWTFGGGTKLEIKR |
| binds | JAB0505 (antibody, mouse IgG1, kappa, V domains shown, also called antibody JAB0505) VH: EVQLQQSGAELVRPGASVRLSCTASGFNIKDSLMHWVKQRPEQGLEWIGWIDPEDGETRYAPNFQDKATITAVTSSNTAYLQLSSLTSEDSAIYYCARYTSRYYTMEYWGQGTSVTVSS VL: DIQMTQSPASQSASLGESVTFTCLASQTIGTWLAWYQQKPGKSPQLLIYAATSLADGVPSRFSGSGSGTKFSFKISSLQAEDFASYYCQQLYWTPWTFGGGTKLEIKR |
